# The whole screen tested about 330,000 compounds, of which about 1,000 (0.3%) were called active. The shares of active, inactive and inconclusive entries below differ from those in the screen. Calls come from the whole dose curve; as a rule, active = well fitted inhibition curve with a large enough effect; inconclusive = small, poorly fitted or top-dose-only effect; inactive = no such curve, though single readings can be large or run the other way; tested in mouse RAW 264.7 cells. Potencies beside an inconclusive call are fits to weak or partial responses and may not hold up.
# Test: qHTS for Inhibitors of Cell Surface uPA Generation; note: nearly all actives have a fitted effect of over 55% in size
# Conditions: cell surface uPA generation assay; series mostly up to 38.3 µM
# Method in brief: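 RAW 264.7 cells (4000/well) were plated overnight at 37 C and then given compounds in a 1:5 series (up to 38.3 uM final) plus reagent for 24 h. Intracellular ATP was measured by ATP-Lite luminescence and stays elevated when uPA-dependent LF entry is blocked.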
# Potency is the fitted concentration of half-maximal effect.
row,SMILES,Potency
1,O=C(NC(=S)Nc1cc([N+](=O)[O-])ccc1O)c1cccnc1,"inconclusive: 20 µM [inhibitor, single point]"
2,CCCCCCC(=O)N/N=C/c1c(O)n(C(C)CC)c(=S)[nH]c1=O (stereo not given),"inconclusive: 12.6 µM [inhibitor, single point]"
3,COC(=O)C1=C(c2cc3ccccc3s2)C[C@@H]2CC[C@H]1N2C(=O)N1CCCCC1,"inconclusive: 28.2 µM [inhibitor, single point]"
4,CCC(C)C1C(C#N)=C(N)Oc2n[nH]c(C)c21 (stereo not given),"inconclusive: 11.2 µM [inhibitor, partial curve, poor fit]"
5,COc1ccc(-c2cc(=Nc3ccccc3)c3cc(C)ccc3o2)cc1,"inconclusive: 6.31 µM [inhibitor, partial curve, poor fit]"
6,CC[C@@]1(c2ccccc2OC)ON(c2ccccc2C(F)(F)F)C1=O,"inconclusive: 10 µM [inhibitor, single point]"
7,COC(=O)C1=C(c2ccccc2OCc2ccccc2)C[C@@H]2CC[C@H]1N2C(=O)NCCOc1ccccc1,"inconclusive: 12.6 µM [inhibitor, single point]"
8,Cc1ccc(S(=O)(=O)Nc2ccc3c(c2)CC(=O)N([C@H](C)CO)C[C@H](C)[C@H](CN(C)Cc2ccc4c(c2)OCO4)O3)cc1,"inconclusive: 11.2 µM [inhibitor, single point]"
9,COc1cc(Cl)ccc1NC(=S)N(CCCN1CCOCC1)Cc1cn(C)c2ccccc12,"inconclusive: 8.91 µM [inhibitor, partial curve, poor fit]"
10,Cc1ccccc1OCCC(=O)Nc1ccc(S(=O)(=O)N(C)C2CCN(C)CC2)cc1,"inconclusive: 10 µM [inhibitor, single point]"
11,CCCC/C(C)=C/[C@@H](NP(=O)(c1ccccc1)c1ccccc1)c1ccccc1,"inconclusive: 11.2 µM [inhibitor, single point]"
12,NC(=O)[C@H]1CC2(CC(c3cccc(NC(=O)COc4ccc(Cl)cc4)c3)=NO2)CN1C(=O)Cc1ccc([N+](=O)[O-])cc1 (stereo not given in full),"inconclusive: 7.08 µM [inhibitor, single point]"
13,N#CC1c2ccccc2-n2nncc2CN1Cc1cc(Cl)cc(Cl)c1 (stereo not given),active: 4.47 µM
14,Clc1cccc(-c2ccc(-c3nc4ccccn4c3NCc3ccccc3)cc2)c1,"inconclusive: 10 µM [inhibitor, partial curve, poor fit]"
15,COc1ccc(-c2ccc([C@H]3[C@@H]4C=CCC[C@@]4(C)C(=O)N3Cc3ccccc3)c(F)c2)cc1OC,"inconclusive: 12.6 µM [inhibitor, single point]"
16,Cc1cccc(N2CCN(C(=O)C3CCN(c4ncnc5c4nc4n5CCCCC4)CC3)CC2)c1C,"inconclusive: 10 µM [inhibitor, partial curve, poor fit]"
17,C#CCOCCOCCOCCNc1nc(N2CCN(C(=O)CCCCCCCCCCNC(=O)Cn3cc(C[C@@H](C)O)nn3)CC2)nc(N2CCN(C(=O)CCCCCCCCCCNC(=O)[C@H](CCCCN)n3cc(C[C@@H](C)CC)nn3)CC2)n1,"inconclusive: 11.2 µM [inhibitor, single point]"
18,COC(=O)C1=C(c2ccc(F)cc2OCc2ccccc2)C[C@@H]2CC[C@H]1N2C(=O)N1CCC(O)(c2ccc(Cl)cc2)CC1,"inconclusive: 20 µM [inhibitor, single point]"

# Some values from the list.
# Value of CCCCCCC(=O)N/N=C/c1c(O)n(C(C)CC)c(=S)[nH]c1=O (stereo not given) under Potency: inconclusive: 12.6 µM [inhibitor, single point]
# Value of COC(=O)C1=C(c2cc3ccccc3s2)C[C@@H]2CC[C@H]1N2C(=O)N1CCCCC1 under Potency: inconclusive: 28.2 µM [inhibitor, single point]

# Following part

row,SMILES,Potency
1,COc1ccc(Cl)cc1NC(=O)CN(C)C(=O)c1ccc(N2CCCCC2)c([N+](=O)[O-])c1,"inconclusive: 28.2 µM [inhibitor, single point]"
2,COCCn1c(O)c(/C=N/NC(=O)CSC(=S)N2CCCC2)c(=O)[nH]c1=S,"inconclusive: 0.398 µM [inhibitor, full curve, poor fit]"
3,Cc1ccccc1CN1Cc2cnnn2-c2ccccc2C1C#N (stereo not given),"inconclusive: 12.6 µM [inhibitor, partial curve, poor fit]"
4,COC(=O)C1=C(c2ccc(F)cc2OCc2ccccc2)C[C@@H]2CC[C@H]1N2C(=O)NCc1ccc2[nH]ccc2c1,"inconclusive: 12.6 µM [inhibitor, single point]"
5,O=C(/C=C/c1ccccc1)NC(NC(=S)Nc1cc(Cl)ccc1Cl)C(Cl)(Cl)Cl (stereo not given),"inconclusive: 10 µM [inhibitor, single point]"
6,CCCCn1c(N)c(C(=O)OCC2CCCO2)c2nc3ccccc3nc21 (stereo not given),inactive
7,COc1cc(-c2ccc(N)c(OC)c2)ccc1N,"inconclusive: 4.47 µM [inhibitor, partial curve, poor fit]"
8,c1ccc2c(c1)OCC(C1=NCCN1)O2 (stereo not given),"inconclusive: 7.08 µM [inhibitor, partial curve, poor fit]"
9,COC(=O)C1=C(c2cccc(OCc3ccccc3)c2)C[C@@H]2CC[C@H]1N2C(=O)NCc1ccc(C(C)(C)C)cc1,"inconclusive: 12.6 µM [inhibitor, partial curve, poor fit]"
10,COC(=O)C1=C(c2cccc(OCc3ccccc3)c2)C[C@@H]2CC[C@H]1N2C(=O)NCc1ccccc1,"inconclusive: 12.6 µM [inhibitor, single point]"
11,c1ccc(Nc2ccc(Nc3ccccc3)cc2)cc1,active: 6.31 µM
12,O=[N+]([O-])/C=C1\NCCN1Cc1ccc(Cl)nc1,inactive
13,Cc1cccc(C(=O)NC(C(=O)Nc2nc(-c3ccccn3)cs2)C(C)C)c1 (stereo not given),"inconclusive: 11.2 µM [inhibitor, single point]"
14,COC(=O)C1=C(c2ccc3ccccc3c2)C[C@@H]2CC[C@H]1N2C(=O)N1CCCC1,"inconclusive: 12.6 µM [inhibitor, single point]"
15,CN1CCC2(CC1)C(C#N)=C(N)NC(S)=C2C#N,inactive
16,N#C[C@H](O[C@@H]1O[C@H](CO[C@@H]2O[C@H](CO)[C@@H](O)[C@H](O)[C@H]2O)[C@@H](O)[C@H](O)[C@H]1O)c1ccccc1,inactive
17,O=C1c2ccccc2-c2n[nH]c3cccc1c23,"inconclusive: 11.2 µM [inhibitor, partial curve, poor fit]"

# Reference: PubChem BioAssay AID540303 (National Center for Advancing Translational Sciences (NCATS), 2011)
